Test [1] concerns the target GFP-tagged VPS37A mutant with both 3WLFP and 137FPYL motifs mutated to DDDD (human) (UniProt Q8NEZ2). Briefly: co-IP; GFP-Trap beads on total cell lysates in 0.5% NP-40 lysis buffer (10 mM Tris/Cl pH 7.5, 150 mM NaCl, 0.5 mM EDTA), washed three times with lysis buffer, immunoblotting. For orientation: Immunoblotting shows a protein as a band on a membrane.
The target of test [2] is GFP-tagged wildtype VPS37A (human) (UniProt Q8NEZ2). The test is described as above.

By UniProt entry, the sequences of proteins in these tests, tags left out. Where a name states a change or a piece, a line headed by the entry shows the natural chain unless it says otherwise. Chains listed by the source or under a name are the forms on record and can include a tag or linker.
UniProt Q8NEZ2: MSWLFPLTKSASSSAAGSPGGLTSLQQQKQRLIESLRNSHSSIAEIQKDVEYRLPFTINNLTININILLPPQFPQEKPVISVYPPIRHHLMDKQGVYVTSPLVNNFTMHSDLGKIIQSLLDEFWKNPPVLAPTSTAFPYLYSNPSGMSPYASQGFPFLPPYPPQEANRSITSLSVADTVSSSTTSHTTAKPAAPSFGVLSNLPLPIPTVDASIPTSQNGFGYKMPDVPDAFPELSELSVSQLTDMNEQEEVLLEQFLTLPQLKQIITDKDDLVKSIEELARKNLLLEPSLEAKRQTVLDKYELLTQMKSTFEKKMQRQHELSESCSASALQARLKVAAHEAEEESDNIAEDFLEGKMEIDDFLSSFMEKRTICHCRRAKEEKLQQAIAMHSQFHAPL
GFP-tagged VPS37A mutant with both 3WLFP and 137FPYL motifs mutated to DDDD (Q8NEZ2, form named): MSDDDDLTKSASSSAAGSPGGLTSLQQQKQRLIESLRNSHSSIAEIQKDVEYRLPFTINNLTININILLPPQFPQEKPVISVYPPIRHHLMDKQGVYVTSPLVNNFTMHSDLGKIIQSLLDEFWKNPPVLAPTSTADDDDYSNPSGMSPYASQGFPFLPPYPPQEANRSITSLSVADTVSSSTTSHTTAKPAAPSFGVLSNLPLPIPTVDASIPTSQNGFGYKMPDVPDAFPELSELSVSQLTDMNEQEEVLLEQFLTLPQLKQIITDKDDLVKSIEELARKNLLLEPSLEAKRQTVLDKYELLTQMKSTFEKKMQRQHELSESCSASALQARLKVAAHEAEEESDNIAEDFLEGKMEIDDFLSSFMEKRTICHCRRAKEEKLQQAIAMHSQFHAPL
UniProt Q99816: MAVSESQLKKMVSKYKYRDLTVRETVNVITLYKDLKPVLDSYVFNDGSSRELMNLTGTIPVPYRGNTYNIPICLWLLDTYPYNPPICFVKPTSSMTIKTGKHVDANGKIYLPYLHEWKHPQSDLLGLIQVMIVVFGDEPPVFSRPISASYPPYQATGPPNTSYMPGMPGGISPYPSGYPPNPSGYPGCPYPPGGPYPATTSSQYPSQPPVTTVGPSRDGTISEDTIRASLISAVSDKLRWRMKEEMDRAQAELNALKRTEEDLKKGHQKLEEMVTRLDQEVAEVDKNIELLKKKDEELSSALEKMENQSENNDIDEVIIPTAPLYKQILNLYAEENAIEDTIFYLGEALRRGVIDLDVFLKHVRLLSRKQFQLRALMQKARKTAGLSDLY
UniProt Q9UK41: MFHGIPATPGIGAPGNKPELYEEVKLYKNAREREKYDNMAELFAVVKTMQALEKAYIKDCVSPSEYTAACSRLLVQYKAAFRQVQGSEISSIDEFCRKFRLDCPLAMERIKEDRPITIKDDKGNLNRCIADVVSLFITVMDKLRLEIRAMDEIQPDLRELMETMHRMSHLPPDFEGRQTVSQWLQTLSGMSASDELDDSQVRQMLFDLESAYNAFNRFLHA

These are yes or no findings as the source states them, for the method shown. Binding seen in cells or lysates may run through a third protein. Some results given as binding are weak or reduced against the parent protein; the word gives no strength.

TSG101 (from UniProt Q99816 1-390): the binding entry in test [1] and in test [2] was “binds” each time.

Consider VPS28 (from UniProt Q9UK41 1-221), for which the binding entry in test [1] is “binds”.

Values taken from paper PMC10942982.
